Our source for the binding values is patent publication US20200200751A1.

The target in this assay is T1, human progastrin (full length, recombinant, produced in E. coli, tag removed) (human).
T1 sequence: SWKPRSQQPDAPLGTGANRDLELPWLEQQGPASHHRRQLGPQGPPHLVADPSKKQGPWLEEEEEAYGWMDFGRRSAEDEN
In words: epitope mapping (details not given).

No constants are given. Whether binding was seen depends on the method and setting. Some binding calls cover weakened binding; strength is not graded here. Tags and fused reporters may be left off the sequences shown.

B1: mAb19 (hybridoma 1B3B4F11) (antibody, V domains shown)
VH: DVQLQESGPGLVKPSQSLSLTCTVTGYSITSDYAWNWIRQFPGNKLEWMGYISFSGYTSYNPSLKSRISVTRDTSRNQFFLQLTSVTTEDTATYYCAREVNYGDSYHFDYWGQGTIVTVSS
VL: QLALTQSSSASFSLGASAKLTCTLSSQHRTYTIEWYQQQSLKPPKYVMEVKKDGSHSTGHGIPDRFSGSSSGADRYLSISNIQPEDEAIYICGVGDAIKGQSVFVFGGGTKVTVL
For the molecule B1, the binding result is listed as “binds”.
